Results: patent US20060127393A1
No constants are given. Whether binding was seen depends on the method and setting. Binding calls can cover weak binding; strength is not graded here.

Target: rat Dkk-1 (rat)
Test: BiaCore and KinExA

binding: binds
B1: 11H10 monoclonal antibody (rat) (antibody, IgG1, V domains shown)
VH: EVQLVESGGGLVQPANSLKLSCAASGFTFSDYAMAWVRQSPKKGLEWVATIIYDGSSTYYRDSVKGRFTISRDNAKSTLYLQMDSLRSEDTATYYCATGLGIATDYFDYWGQGVLVTVSS
VL: DIRMTQSPASLSASLGETVNIECLASEDIYSDLAWYQQKPGKSPQLLIYNANSLQNGVPSRFSGSGSGTQYSLKINSLQSEDVATYFCQQYNNYPPTFGGGTKLELKR
